PubChem BioAssay AID504786 | Drosophila RNAi Screening Center, 2011

Assay: 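Knock-downs reducing HIF reporter induction by the iron chelator DFO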 (primary screen)
Cells: Drosophila S2 cells with a stable HIF luciferase reporter
Reagents: long dsRNA against Drosophila genes, about 0.2 µg dsRNA per well of a 384-well plate
Duration: three days of knock-down, then 20 h of DFO before reading
Challenge: desferrioxamine (DFO) at 100 µM, an iron chelator that mimics hypoxia, for 20 h
Detection: 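Firefly luciferase driven by the mouse ldh-a hypoxia-response element, measured after 20 h of 100 µM DFO; z-scores per plate, higher means more signal lost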
Reading the numbers: z-score: higher = stronger loss of HIF reporter signal
In all, the deposit lists about 21,000 reagents; shown is a random part of those that have a named target and a result. 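Primary screen; positive scores mean lost reporter signal, so the sign may be inverted from the usual convention.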 Reagent sequences are not shown.

What did the screen give for CatB (Catalase B) [DRSC03194]?
z-score, replicate 1: -0.4; z-score, replicate 2: -0.6

With Acp36DE (Accessory gland protein 36DE) [DRSC01860], how do the results read?
z-score, replicate 1: -0.2; z-score, replicate 2: -0.4

What did the screen give for CG13962 [DRSC02304]?
z-score, replicate 1: -0.3; z-score, replicate 2: -0.2

What is on record for CG12054 [DRSC14467]?
z-score, replicate 1: 2.2; z-score, replicate 2: 2.6

What did the screen give for CG5447 [DRSC15801]?
z-score, replicate 1: -0.5; z-score, replicate 2: 1.1

For aln (allnighter) [DRSC08240], how do the results read?
z-score, replicate 1: -0.2; z-score, replicate 2: -0.9

With CG5612 [DRSC15844], what was measured?
z-score, replicate 1: 0.1; z-score, replicate 2: 0.5

For mia (meiosis I arrest) [DRSC12137], how do the results read?
z-score, replicate 1: -0.4; z-score, replicate 2: -0.2

For RhoGAP19D (Rho GTPase activating protein at 19D) [DRSC20499], how do the results read?
z-score, replicate 1: -0.2; z-score, replicate 2: -0.2

What is on record for RhoGAP19D (Rho GTPase activating protein at 19D) [DRSC20500]?
z-score, replicate 1: -0.1; z-score, replicate 2: 0.1

What is on record for CG8738 [DRSC07256]?
z-score, replicate 1: -0.2; z-score, replicate 2: -0.6

What did the screen give for Nrg (Neuroglian) [DRSC17573]?
z-score, replicate 1: -0.5; z-score, replicate 2: -0.3

For Nrg (Neuroglian) [DRSC18688], how do the results read?
z-score, replicate 1: -0.3; z-score, replicate 2: -0.6

Targets listed so far whose gene name starts with C or c (6):
CatB (Catalase B) [DRSC03194] → z-score, replicate 1: -0.4; z-score, replicate 2: -0.6
CG13962 [DRSC02304] → z-score, replicate 1: -0.3; z-score, replicate 2: -0.2
CG12054 [DRSC14467] → z-score, replicate 1: 2.2; z-score, replicate 2: 2.6
CG5447 [DRSC15801] → z-score, replicate 1: -0.5; z-score, replicate 2: 1.1
CG5612 [DRSC15844] → z-score, replicate 1: 0.1; z-score, replicate 2: 0.5
CG8738 [DRSC07256] → z-score, replicate 1: -0.2; z-score, replicate 2: -0.6

More reagents follow:
How did the screen score mRpL49 (mitochondrial ribosomal protein L49) [DRSC19908]?
z-score, replicate 1: 1.1; z-score, replicate 2: 0.9

What did the screen give for CG14480 [DRSC06452]?
z-score, replicate 1: -0.3; z-score, replicate 2: -0.3

What did the screen give for wun (wunen) [DRSC07719]?
z-score, replicate 1: -0.4; z-score, replicate 2: -0.6

How did the screen score Dlip2 (Dorsal interacting protein 2) [DRSC12346]?
z-score, replicate 1: -0.2; z-score, replicate 2: -0.6

With CG12851 [DRSC04131], what was measured?
z-score, replicate 1: 0.1; z-score, replicate 2: -0.1

With Pex2 (Peroxin 2) [DRSC10770], how do the results read?
z-score, replicate 1: -0.2; z-score, replicate 2: -0.3

What did the screen give for fon (fondue) [DRSC02507]?
z-score, replicate 1: -0.4; z-score, replicate 2: -0.5

Which result is listed for CG17167 [DRSC20902]?
z-score, replicate 1: 0.2; z-score, replicate 2: -0.5

Which result is listed for CG17167 [DRSC20903]?
z-score, replicate 1: 0; z-score, replicate 2: -0.5

With CG32107 [DRSC09221], how do the results read?
z-score, replicate 1: 0; z-score, replicate 2: -0.3

What is on record for MED21 (Mediator complex subunit 21) [DRSC20932]?
z-score, replicate 1: 0.2; z-score, replicate 2: -0.5

With CG7069 [DRSC16188], how do the results read?
z-score, replicate 1: -0.2; z-score, replicate 2: -0.3

For CG13481 [DRSC10023], what was measured?
z-score, replicate 1: -0.2; z-score, replicate 2: -0.2

For Csgalnact (Chondroitin sulfate N-acetylgalactosaminyltransferase) [DRSC06228], what was measured?
z-score, replicate 1: -0.3; z-score, replicate 2: -0.4
